EP0913399A1, “Silver -2-mercapto sodium benzoate pharmaceutical compound and process for obtaining the same” (Korban Medical S.a.s. di Longhetti Gianna & C., priority 1997, dated 1999)
At least one compound was matched to its structure with a doubt left.

Assay: pH of solution
Format: physicochemical
Conditions: 1% solution in H2O

O=C(O)c1ccccc1[S][Ag] [silver-2-mercapto sodium benzoate]
pH: 8.1
